The text below walks through data of paper doi:10.1101/2020.03.12.989277.

Amino acid sequences for entries named in this document (tags omitted).
UniProt Q02248: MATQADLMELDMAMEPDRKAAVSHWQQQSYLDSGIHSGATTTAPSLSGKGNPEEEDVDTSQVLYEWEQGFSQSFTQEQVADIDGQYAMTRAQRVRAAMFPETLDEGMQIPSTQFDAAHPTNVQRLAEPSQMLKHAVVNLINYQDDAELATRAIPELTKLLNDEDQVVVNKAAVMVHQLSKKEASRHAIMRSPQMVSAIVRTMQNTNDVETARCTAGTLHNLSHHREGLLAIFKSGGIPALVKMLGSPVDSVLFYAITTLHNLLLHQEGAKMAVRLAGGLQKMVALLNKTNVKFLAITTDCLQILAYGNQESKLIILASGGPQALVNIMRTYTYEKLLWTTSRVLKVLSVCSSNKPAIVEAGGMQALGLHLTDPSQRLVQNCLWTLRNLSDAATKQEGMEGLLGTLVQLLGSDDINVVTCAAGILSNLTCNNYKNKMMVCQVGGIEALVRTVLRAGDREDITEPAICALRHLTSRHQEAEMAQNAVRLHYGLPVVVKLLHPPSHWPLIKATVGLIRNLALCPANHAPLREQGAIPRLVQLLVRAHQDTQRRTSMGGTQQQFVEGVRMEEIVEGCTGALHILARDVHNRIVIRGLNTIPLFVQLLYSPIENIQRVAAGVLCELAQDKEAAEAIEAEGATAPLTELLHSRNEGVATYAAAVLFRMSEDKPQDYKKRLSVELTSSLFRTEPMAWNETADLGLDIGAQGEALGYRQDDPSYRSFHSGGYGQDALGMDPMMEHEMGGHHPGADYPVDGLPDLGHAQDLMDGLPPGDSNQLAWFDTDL
UniProt P32121: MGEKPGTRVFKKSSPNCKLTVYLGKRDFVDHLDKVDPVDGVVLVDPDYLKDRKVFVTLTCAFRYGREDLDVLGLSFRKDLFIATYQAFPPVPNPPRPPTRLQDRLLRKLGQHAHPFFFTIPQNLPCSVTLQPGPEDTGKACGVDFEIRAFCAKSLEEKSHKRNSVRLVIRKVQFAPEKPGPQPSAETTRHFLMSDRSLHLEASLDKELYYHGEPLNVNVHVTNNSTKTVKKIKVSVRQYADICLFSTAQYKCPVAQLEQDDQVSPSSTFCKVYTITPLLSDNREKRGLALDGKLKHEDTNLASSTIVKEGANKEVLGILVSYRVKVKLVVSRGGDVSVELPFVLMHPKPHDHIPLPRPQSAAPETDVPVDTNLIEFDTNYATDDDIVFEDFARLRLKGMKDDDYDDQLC
UniProt Q03267: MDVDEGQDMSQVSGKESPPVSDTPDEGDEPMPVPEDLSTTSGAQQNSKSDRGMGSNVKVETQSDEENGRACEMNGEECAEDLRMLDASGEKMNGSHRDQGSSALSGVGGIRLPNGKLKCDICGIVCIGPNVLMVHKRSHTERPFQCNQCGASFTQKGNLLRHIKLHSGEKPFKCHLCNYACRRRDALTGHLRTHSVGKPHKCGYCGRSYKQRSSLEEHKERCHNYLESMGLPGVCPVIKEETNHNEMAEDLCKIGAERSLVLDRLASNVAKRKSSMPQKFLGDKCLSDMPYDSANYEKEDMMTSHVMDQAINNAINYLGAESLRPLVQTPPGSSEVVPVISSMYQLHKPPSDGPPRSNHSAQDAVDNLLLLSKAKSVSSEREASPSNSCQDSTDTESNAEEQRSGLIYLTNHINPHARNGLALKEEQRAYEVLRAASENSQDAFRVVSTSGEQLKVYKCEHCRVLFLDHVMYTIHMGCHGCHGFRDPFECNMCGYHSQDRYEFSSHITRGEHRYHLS
UniProt Q2M2I8: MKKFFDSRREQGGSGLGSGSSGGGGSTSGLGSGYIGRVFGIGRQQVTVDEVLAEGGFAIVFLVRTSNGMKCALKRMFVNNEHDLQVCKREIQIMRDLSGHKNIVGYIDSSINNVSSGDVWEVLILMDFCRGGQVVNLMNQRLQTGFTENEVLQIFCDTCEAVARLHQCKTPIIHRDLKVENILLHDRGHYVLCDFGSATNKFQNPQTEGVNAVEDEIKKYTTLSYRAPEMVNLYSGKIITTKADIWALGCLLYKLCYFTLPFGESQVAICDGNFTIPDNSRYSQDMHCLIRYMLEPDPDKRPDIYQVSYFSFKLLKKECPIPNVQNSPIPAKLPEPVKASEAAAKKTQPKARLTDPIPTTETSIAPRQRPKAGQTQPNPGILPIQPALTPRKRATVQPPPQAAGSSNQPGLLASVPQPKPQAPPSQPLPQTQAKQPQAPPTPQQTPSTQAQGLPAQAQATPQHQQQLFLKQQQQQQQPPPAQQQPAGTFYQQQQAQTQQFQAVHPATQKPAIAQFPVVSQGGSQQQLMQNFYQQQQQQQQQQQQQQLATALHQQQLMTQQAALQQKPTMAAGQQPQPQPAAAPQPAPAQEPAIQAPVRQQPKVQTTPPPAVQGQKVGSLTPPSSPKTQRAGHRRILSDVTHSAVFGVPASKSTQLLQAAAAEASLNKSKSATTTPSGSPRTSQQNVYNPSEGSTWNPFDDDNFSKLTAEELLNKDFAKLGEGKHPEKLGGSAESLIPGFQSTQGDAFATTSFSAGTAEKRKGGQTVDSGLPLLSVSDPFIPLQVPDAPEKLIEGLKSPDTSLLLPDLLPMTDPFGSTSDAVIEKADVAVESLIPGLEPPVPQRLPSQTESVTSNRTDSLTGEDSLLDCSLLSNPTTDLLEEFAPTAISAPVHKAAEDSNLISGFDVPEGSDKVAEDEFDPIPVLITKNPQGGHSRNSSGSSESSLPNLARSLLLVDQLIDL

These are yes or no findings as the source states them, for the method shown. In cells and extracts the contact can be indirect. Some results given as binding are weak or reduced against the parent protein; the word gives no strength. For part of these data: Tags and fused reporters may be left off the sequences shown.

The target of assay [1] is T1, LGR5 with a C-terminal HA-tag (UniProt O75473).
T1 sequence: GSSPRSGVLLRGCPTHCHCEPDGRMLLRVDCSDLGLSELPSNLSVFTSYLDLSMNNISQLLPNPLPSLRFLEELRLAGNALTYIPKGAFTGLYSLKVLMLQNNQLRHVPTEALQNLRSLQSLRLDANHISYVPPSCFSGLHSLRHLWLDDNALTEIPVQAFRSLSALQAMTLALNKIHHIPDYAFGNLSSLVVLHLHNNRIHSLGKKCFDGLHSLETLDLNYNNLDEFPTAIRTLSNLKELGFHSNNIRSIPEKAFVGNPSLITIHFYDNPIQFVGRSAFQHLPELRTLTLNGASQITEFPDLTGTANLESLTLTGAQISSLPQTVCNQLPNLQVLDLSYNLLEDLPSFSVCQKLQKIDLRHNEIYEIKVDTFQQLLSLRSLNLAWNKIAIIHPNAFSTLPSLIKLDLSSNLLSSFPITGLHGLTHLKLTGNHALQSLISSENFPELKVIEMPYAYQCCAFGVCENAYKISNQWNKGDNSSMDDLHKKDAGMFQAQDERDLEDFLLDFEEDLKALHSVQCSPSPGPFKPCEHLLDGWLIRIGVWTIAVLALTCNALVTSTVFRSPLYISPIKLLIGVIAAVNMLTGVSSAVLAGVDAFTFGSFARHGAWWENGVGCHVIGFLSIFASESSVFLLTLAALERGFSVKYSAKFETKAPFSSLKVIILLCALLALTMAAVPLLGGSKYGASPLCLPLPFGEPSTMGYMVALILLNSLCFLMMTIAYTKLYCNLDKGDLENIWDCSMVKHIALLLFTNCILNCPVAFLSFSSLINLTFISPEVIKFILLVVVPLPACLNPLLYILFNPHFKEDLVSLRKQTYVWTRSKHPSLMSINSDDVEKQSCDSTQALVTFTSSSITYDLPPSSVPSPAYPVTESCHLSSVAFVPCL
As to the kind of experiment: pull-down.

The target in assay [2] is FLAG-tagged β-catenin (mouse) (UniProt Q02248). As to the kind of experiment: co-IP.

For the substance “β-arrestin (ARRB2) (from UniProt P32121 1-409)”, in assay [1], the binding result is “binds”. On to “Ikzf1 (Ikaros) (from UniProt Q03267 1-517)”, for which, in assay [2], the binding entry is reported as “binds”. Take AAK1 (from UniProt Q2M2I8 1-961): in assay [1], the binding result is on record as “binds”.
